Source: patent US5057521A, “Use of bicyclic imidazole compounds for the treatment of hyperaldosteronism” (Ciba-Geigy Corporation, priority 1988, dated 1991)

Tested on: ACTH-induced aldosterone production in the adrenals of rats or mice
Test: cells
Conditions: 2 h, read-out: IC50 of inhibition of ACTH-induced aldosterone production

In the case of `N#Cc1ccc(C2CCCc3cncn32)cc1` (racemic) [5-(p-cyanophenyl)-5,6,7,8-tetrahydroimidazo[1,5-a]pyridine], the IC50 is reported as 1000 nM.
